Measured values: patent publication US20260257039A1, “CONVECTION-ENHANCED THERMO-CHEMOTHERAPY CATHETER SYSTEM” (Board of Regents, The University of Texas System, priority 2022, published 2026)

Experiment: Agarose infusions: CED of indigo carmine dye, constant flow vs constant pressure, with controlled catheter retraction
Settings: for Vd (volume dispersed): mean±SD, n=5

O=C1/C(=C2\Nc3ccc(S(=O)(=O)[O-])cc3C2=O)Nc2ccc(S(=O)(=O)[O-])cc21.[Na+].[Na+] [indigo carmine dye, indigo carmine]
Vd:Vi (mean distribution ratio) (0.25 mm/min Const. Flow, 100 min): 22.3 ± 0.35 | Vd:Vi (mean distribution ratio) (0.25 mm/min Const. Pressure, 100 min): 13.19 ± 1.21 | increase in Vd (0.25 mm/min constant pressure relative to stationary constant flow catheter): 105% | increase in Vd (0.25 mm/min constant pressure vs 0.25 mm/min constant flow rate counterpart): 42% | increase in Vd (0.25 mm/min constant pressure vs stationary constant pressure): 94% | Vd (volume dispersed) (0.25 mm/min retraction, Const. Flow (1 μL/min), 100 min): 2.23 ± 0.04 mL | Vd (volume dispersed) (0.25 mm/min retraction, Const. Pressure (target 977 Pa), 100 min): 3.17 ± 0.25 mL | Vd:Vi (mean distribution ratio) (0.5 mm/min Const. Flow, 100 min): 27.4 ± 0.53 | Vd:Vi (mean distribution ratio) (0.5 mm/min Const. Pressure, 100 min): 13.69 ± 0.92 | increase in Vd (0.5 mm/min constant flow rate vs 0.25 mm/min constant flow rate): 23% | increase in Vd (0.5 mm/min constant pressure relative to stationary constant flow catheter): 155% | increase in Vd (0.5 mm/min constant pressure vs 0.25 mm/min constant pressure): about 25% | increase in Vd (0.5 mm/min constant pressure vs 0.5 mm/min constant flow rate counterpart): 45% | increase in Vd (0.5 mm/min constant pressure with controlled retraction, comparator not stated): 143% | Vd (volume dispersed) (0.5 mm/min retraction, Const. Flow (1 μL/min), 100 min): 2.74 ± 0.05 mL | Vd (volume dispersed) (0.5 mm/min retraction, Const. Pressure (target 977 Pa), 100 min): 3.96 ± 0.19 mL | Vd (volume dispersed) (Stationary Const. Flow (1 μL/min), 100 min infusion): 1.55 ± 0.03 mL | Vd:Vi (mean distribution ratio) (Stationary Const. Flow, 100 min): 15.5 ± 0.32 | Vd (volume dispersed) (Stationary Const. Pressure (target 977 Pa), 100 min): 1.63 ± 0.07 mL | Vd:Vi (mean distribution ratio) (Stationary Const. Pressure, 100 min): 14.71 ± 0.63
